Target: T1, Tyrosine-protein kinase JAK3 (Homo sapiens, UniProt P52333)
T1 sequence (P52333 whole entry): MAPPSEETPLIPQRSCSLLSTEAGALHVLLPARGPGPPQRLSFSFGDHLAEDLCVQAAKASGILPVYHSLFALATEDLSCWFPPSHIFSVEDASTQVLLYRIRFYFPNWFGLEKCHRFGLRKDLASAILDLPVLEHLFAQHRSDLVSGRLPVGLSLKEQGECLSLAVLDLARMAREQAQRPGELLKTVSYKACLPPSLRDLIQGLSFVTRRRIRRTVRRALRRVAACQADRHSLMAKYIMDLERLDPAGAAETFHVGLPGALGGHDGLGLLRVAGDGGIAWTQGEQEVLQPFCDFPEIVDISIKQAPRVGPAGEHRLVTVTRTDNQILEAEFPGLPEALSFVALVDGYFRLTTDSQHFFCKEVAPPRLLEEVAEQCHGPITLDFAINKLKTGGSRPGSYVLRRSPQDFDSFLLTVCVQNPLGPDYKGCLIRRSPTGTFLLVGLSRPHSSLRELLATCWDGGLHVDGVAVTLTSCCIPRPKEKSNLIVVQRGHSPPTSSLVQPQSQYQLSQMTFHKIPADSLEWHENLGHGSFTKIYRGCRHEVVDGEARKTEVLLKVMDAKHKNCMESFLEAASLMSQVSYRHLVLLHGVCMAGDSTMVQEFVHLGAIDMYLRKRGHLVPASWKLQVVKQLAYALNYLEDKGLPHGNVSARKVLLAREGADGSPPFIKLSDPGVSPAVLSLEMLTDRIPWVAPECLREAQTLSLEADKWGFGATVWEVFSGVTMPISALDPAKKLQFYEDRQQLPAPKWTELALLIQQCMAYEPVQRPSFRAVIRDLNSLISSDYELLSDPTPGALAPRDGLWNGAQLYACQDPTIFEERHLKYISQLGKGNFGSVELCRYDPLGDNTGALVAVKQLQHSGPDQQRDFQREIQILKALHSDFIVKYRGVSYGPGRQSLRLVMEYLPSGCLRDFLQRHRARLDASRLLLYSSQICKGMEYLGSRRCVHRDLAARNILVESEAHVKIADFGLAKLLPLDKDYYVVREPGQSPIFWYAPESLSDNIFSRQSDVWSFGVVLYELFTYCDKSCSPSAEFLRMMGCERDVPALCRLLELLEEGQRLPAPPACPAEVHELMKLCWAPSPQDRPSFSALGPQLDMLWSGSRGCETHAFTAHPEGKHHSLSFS

IC50: 0.154 nM
SMILES: CN(C)C(=O)/C(C#N)=C/c1ccc(-c2nc3cnc4[nH]ccc4c3n2C2CCCCC2)o1
